Values of other authors, collected in patent publication US20010053349A1, “Artificial nail sanitizing solution” (priority 2000, published 2001).
At least one structure is not confirmed: it was looked up by name or label, or the drawing left a doubt.

Test system: nail fungus
Conditions: oral compounds; average; treatment of documented nail fungus

CCC(C)n1ncn(-c2ccc(N3CCN(c4ccc(OCC5COC(Cn6cncn6)(c6ccc(Cl)cc6Cl)O5)cc4)CC3)cc2)c1=O (stereo not shown) [itraconazole]
Clinical and mycological cure rates: 70%
